Experimental data reported in patent publication US20180094075A1 (Pfizer, published 2018).
These are yes or no findings as the source states them, for the method shown. Some binding calls cover weakened binding; strength is not graded here.

Protein sequences, listed by entry. Tags and fused reporters are not part of them. Lines headed by an entry give the natural chain unless they say otherwise; changes in a name come on top.
UniProt Q13308: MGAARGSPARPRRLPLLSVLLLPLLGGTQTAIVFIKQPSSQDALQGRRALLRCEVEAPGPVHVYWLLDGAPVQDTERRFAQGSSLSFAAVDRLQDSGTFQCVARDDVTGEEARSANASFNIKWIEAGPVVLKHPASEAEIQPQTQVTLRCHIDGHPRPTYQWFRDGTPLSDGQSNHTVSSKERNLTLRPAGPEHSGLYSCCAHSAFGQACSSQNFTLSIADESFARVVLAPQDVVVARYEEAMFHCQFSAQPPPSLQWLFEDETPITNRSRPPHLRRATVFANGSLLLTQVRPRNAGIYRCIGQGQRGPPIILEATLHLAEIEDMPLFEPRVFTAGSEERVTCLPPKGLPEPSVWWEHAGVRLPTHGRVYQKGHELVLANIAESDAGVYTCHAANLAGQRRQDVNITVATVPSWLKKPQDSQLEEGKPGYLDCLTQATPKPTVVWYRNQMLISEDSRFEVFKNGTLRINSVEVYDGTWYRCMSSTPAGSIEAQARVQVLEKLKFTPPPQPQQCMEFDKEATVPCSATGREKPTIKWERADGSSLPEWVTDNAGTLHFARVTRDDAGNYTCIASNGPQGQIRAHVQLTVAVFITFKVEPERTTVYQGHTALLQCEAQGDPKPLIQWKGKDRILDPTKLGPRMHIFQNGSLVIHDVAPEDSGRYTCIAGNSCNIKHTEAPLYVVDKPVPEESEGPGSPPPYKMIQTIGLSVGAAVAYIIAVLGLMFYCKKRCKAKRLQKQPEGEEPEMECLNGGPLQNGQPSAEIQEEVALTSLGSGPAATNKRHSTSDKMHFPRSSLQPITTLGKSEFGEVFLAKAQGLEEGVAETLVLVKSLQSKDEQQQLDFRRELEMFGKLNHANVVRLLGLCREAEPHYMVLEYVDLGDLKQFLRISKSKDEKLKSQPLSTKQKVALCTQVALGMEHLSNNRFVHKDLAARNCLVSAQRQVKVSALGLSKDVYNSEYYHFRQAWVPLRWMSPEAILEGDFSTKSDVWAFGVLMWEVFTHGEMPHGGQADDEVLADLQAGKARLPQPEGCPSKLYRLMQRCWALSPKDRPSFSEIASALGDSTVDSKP

Target: human PTK7 antigen (form not stated) (human) (UniProt Q13308)
Test: BIACORE

binding: binds
B1: hu58 (humanized anti-PTK7 antibody) (antibody, human IgG1, kappa, V domains shown)
VH: EVQLVESGGGLVQPGGSLRLSCAASGFDFSRYWMSWVRQAPGKGLEWIGDLNPDSSAINYVDSVKGRFTISRDNAKNSLYLQMNSLRAEDTAVYYCTLITTLVPYTMDFWGQGTSVTVSS
VL: ETTLTQSPAFMSATPGDKVNISCITNTDIDDDMNWYQQKPGEAAILLISEGNGLRPGIPPRFSGSGYGTDFTLTINNIESEDAAYYFCLQSDNLPLTFGSGTKLEIKR
